From article PMC8909100
These are yes or no findings as the source states them, for the method shown. Binding seen in cells or lysates may run through a third protein. Some entries that bind do so weakly or less than the wild type.

The chains behind the UniProt entries cited, without tags or fusion partners.
UniProt P35222: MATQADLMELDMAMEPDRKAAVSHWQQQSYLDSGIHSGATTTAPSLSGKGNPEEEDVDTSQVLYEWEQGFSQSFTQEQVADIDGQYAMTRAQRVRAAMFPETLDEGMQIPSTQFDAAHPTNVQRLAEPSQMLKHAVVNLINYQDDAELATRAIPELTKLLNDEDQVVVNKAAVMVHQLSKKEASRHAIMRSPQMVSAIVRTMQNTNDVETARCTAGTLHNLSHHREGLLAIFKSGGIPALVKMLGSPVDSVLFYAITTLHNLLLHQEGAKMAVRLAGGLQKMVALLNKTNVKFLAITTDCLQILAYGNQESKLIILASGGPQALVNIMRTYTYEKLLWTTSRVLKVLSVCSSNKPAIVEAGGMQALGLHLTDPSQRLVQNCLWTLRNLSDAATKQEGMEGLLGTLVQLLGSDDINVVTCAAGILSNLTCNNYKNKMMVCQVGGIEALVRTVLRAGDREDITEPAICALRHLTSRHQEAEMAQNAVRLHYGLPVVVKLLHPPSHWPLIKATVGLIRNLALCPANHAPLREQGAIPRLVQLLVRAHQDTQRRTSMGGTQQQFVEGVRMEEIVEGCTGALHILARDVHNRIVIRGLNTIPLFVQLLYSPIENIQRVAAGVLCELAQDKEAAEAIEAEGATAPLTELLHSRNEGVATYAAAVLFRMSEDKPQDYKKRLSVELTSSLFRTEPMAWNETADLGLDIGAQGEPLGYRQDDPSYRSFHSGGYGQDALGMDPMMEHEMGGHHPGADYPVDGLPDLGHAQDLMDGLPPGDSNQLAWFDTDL
UniProt O15540: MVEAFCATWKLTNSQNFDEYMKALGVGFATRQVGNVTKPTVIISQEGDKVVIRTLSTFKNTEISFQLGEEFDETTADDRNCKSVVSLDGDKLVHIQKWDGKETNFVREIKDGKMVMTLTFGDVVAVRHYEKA

Target: HA-tagged-β-catenin (UniProt P35222)
Test: co-IP; HA-tagged β-catenin precipitated with HA affinity agarose from NP-40 lysate overnight at 4 °C; 5 washes in 150 mM NaCl, 10 mM HEPES pH 7.4, 0.1% NP-40; Western blot; methods name 293FT cells, legends name A549 cells; Figure 5F with or without FABP7 overexpression

binding	Substance
binds	FABP7, ectopically overexpressed (from UniProt O15540 1-132)
binds	fatty acid binding protein 7 (FABP7), endogenous (from UniProt O15540 1-132)
